Cleaved PARP in drug-treated melanoma cells

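The test systems are human melanoma cell lines, treated with two drugs together for 72 h and then stained and imaged. The read-out is the fraction of cleaved-PARP-positive nuclei, in % of that fraction in the DMSO control; 200 means twice the control level of this apoptosis marker. Concentrations were fixed for each drug; these are the higher of two levels. The file gives one value for each pair and line, without errors, so small differences may be noise. The marker varies much from line to line, for technical or biological reasons.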
This is part of the screen, not chosen by result.
An entry leaves out what has no value listed here.
A dash means that no value is listed here.

Drug key:
veliparib: C[C@]1(c2nc3c(C(N)=O)cccc3[nH]2)CCCN1 at 7 µM
NVP-BEZ235: Cn1c(=O)n(-c2ccc(C(C)(C)C#N)cc2)c2c3cc(-c4cnc5ccccc5c4)ccc3ncc21 at 0.02 µM
nutlin-3: COc1ccc(C2=N[C@@H](c3ccc(Cl)cc3)[C@@H](c3ccc(Cl)cc3)N2C(=O)N2CCNC(=O)C2)c(OC(C)C)c1 at 0.5 µM
fingolimod: CCCCCCCCc1ccc(CCC(N)(CO)CO)cc1 at 10 µM
dorsomorphin: c1cc(-c2cnn3cc(-c4ccc(OCCN5CCCCC5)cc4)cnc23)ccn1 at 2 µM
temozolomide: Cn1nnc2c(C(N)=O)ncn2c1=O at 10 µM
sorafenib: CNC(=O)c1cc(Oc2ccc(NC(=O)Nc3ccc(Cl)c(C(F)(F)F)c3)cc2)ccn1 at 2 µM
erlotinib: C#Cc1cccc(Nc2ncnc3cc(OCCOC)c(OCCOC)cc23)c1 at 4 µM
GW0742: Cc1cc(SCc2sc(-c3ccc(C(F)(F)F)c(F)c3)nc2C)ccc1OCC(=O)O at 10 µM

Pair	COLO 800	RVH-421	UACC-257	WM1745	501mel	G-361	LB2518-MEL	WM3619	IST-MEL1	A101D
erlotinib and fingolimod	327	9580	268	1070	-	9020	8690	1210	503	3650
NVP-BEZ235 and sorafenib	141	289	82.3	106	-	183	-	135	92.5	41.3
fingolimod and veliparib	142	261	139	425	-	9320	28200	7790	280	795
veliparib and temozolomide	753	131	175	136	-	172	91.7	127	200	216
GW0742 and erlotinib	174	113	26.2	160	-	97.9	-	120	32.6	212
nutlin-3 and veliparib	214	574	93.3	98.8	-	142	84.5	86.4	163	222
NVP-BEZ235 and GW0742	218	61.2	92.8	-	97.1	132	257	129	110	135
nutlin-3 and GW0742	106	125	78.4	-	136	127	175	124	157	238
temozolomide and sorafenib	153	61.8	42.0	83.6	-	130	72.7	140	44.9	348
erlotinib and nutlin-3	105	176	65.4	171	-	50.6	241	114	73.7	54.8
nutlin-3 and dorsomorphin	51.6	116	80.5	-	134	199	152	159	56.9	118
sorafenib and GW0742	74.0	87.3	128	-	84.5	195	86.7	92.2	72.3	135
GW0742 and dorsomorphin	50.2	80.5	17.5	147	474	142	88.7	127	294	116
veliparib and NVP-BEZ235	245	132	30.2	95.0	-	313	72.1	147	141	102
GW0742 and veliparib	141	105	102	142	148	112	79.8	125	28.2	105
NVP-BEZ235 and temozolomide	154	56.9	34.3	92.9	-	126	82.0	107	213	100
fingolimod and dorsomorphin	335	261	37.6	-	5170	3920	8020	2600	732	2690
sorafenib and nutlin-3	37.1	83.0	126	91.5	-	75.0	96.4	78.3	122	90.6
GW0742 and fingolimod	321	550	176	-	9320	16200	31000	3060	1390	1950
temozolomide and dorsomorphin	88.1	86.2	27.2	143	88.9	159	84.0	135	100	169
temozolomide and nutlin-3	101	660	110	98.4	-	227	163	133	64.8	321
sorafenib and veliparib	168	70.7	133	106	-	31.0	131	112	93.3	31.7
sorafenib and fingolimod	909	2070	45.5	3430	-	11300	56500	3640	1530	2120
dorsomorphin and sorafenib	139	135	118	-	68.6	189	175	89.6	151	43.3
fingolimod and temozolomide	351	347	47.4	2210	-	6810	97.8	1750	1400	1380
NVP-BEZ235 and erlotinib	160	76.5	61.0	262	-	186	187	120	245	183
dorsomorphin and erlotinib	114	61.7	28.1	502	207	472	307	136	112	178
NVP-BEZ235 and nutlin-3	155	75.6	121	105	-	181	77.4	115	86.7	110
erlotinib and sorafenib	21.8	163	44.2	114	-	130	146	95.5	142	108
nutlin-3 and fingolimod	451	4710	172	2810	-	9930	17900	16500	2480	2540

Repeated from the top, 3 entries:

* erlotinib and fingolimod | COLO 800: 327; RVH-421: 9580; UACC-257: 268; WM1745: 1070; G-361: 9020; LB2518-MEL: 8690; WM3619: 1210; IST-MEL1: 503; A101D: 3650
* NVP-BEZ235 and sorafenib | COLO 800: 141; RVH-421: 289; UACC-257: 82.3; WM1745: 106; G-361: 183; WM3619: 135; IST-MEL1: 92.5; A101D: 41.3
* fingolimod and veliparib | COLO 800: 142; RVH-421: 261; UACC-257: 139; WM1745: 425; G-361: 9320; LB2518-MEL: 28200; WM3619: 7790; IST-MEL1: 280; A101D: 795

Data from the primary screen of doi:10.1371/journal.pone.0140310, rounded.